± gives the standard deviation of the averaged measurements. The list shows a part of the results. Single values are uncertain here, since repeats match poorly.

The experiment has as its system IL-6-GFP PC-9GR. In words: IL-6-GFP fluorescence relative to DMSO control (fraction of control); higher = more IL-6-GFP expression. Particulars: compound concentration: 10 uM; treatment time: 48 h. As to the method:
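IL-6-GFP-overexpressing PC-9 and PC-9GR EGFR-mutant lung cancer cells (3000 cells/well, 96-well) were treated for 48 h with each compound of the Selleck L2000 library at 10 uM. IL-6-GFP fluorescence was read on a high-content screening system, and viability by CCK-8 absorbance on a parallel plate set. Each value was normalised as compound well / DMSO control well; two independent replicates.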
With `CC(C)C12OC1C1OC13C1(C)CCC4=C(COC4=O)C1CC1OC13C2O` (configuration not stated) [Triptolide (PG490)], the IL-6-GFP fluorescence amounted to 0.899 ± 0.034.
The same measure for `CN(C)NC(=O)CCC(=O)O` [Daminozide]: 0.51 ± 0.46.
`Cn1c(CCCC(=O)O)nc2cc(N(CCCl)CCCl)ccc21` [Bendamustine]: the IL-6-GFP fluorescence turned out to be 0.874 ± 0.072.
The same measure for `O=C(O)CCCc1ccc(N(CCCl)CCCl)cc1` [Chloroambucil]: 0.59 ± 0.09; for `CC1CCC2N(C1)CC1C3CC4C(CC(O)C5CC(O)CCC54C)C3CCC1C2(C)O` (configuration not stated) [Peimine]: 0.817 ± 0.086.
`CC12CCC3C(CCC4=C(O)C(=O)CCC43C)C1CCC2=O` (configuration not stated) [Formestane] showed an IL-6-GFP fluorescence of 0.768 ± 0.29.
The same measure for `COc1cc2c(cc1O)CC1c3c(cc(O)c(OC)c3-2)CCN1C` (configuration not stated) [Boldine]: 0.8442 ± 0.0055; for `CCC1(O)C(=O)OCc2c1cc1n(c2=O)Cc2c-1nc1ccccc1c2CCNC(C)C.Cl` (configuration not stated) [Belotecan (CKD-602) hydrochloride]: 1.09 ± 0.082; for `O=c1c2ccccc2[se]n1-c1ccccc1` [Ebselen]: 0.97 ± 0.43.
The same measure for `COC1=CC2C3Cc4ccc(OC)c(O)c4C2(CCN3C)CC1=O.Cl` (configuration not stated) [Sinomenine hydrochloride]: 0.947 ± 0.023; for `CC1CC(=O)CC2CCC3C4CCC(O)C4(C)CCC3C12C` (configuration not stated) [Mesterolone]: 0.919 ± 0.076; for `COc1cc2c(c(OC)c1OC)-c1ccc(OC)c(=O)cc1C(NC(C)=O)CC2` (configuration not stated) [Colchicine]: 0.845 ± 0.18.
In the case of `CC(C)[N+](C)(CCC(C(N)=O)(c1ccccc1)c1ccccc1)C(C)C.[I-]` [Isopropamide Iodide], the IL-6-GFP fluorescence stood at 0.901 ± 0.081.
`CCC1=CC2CN3CCc4c([nH]c5ccccc45)C(C(=O)OC)(C2)C13` (configuration not stated) [Catharanthine] showed an IL-6-GFP fluorescence of 0.996 ± 0.12.
As to `Cl.Cn1c(CCCC(=O)O)nc2cc(N(CCCl)CCCl)ccc21` [Bendamustine HCl], the IL-6-GFP fluorescence was 0.9408 ± 0.0084.
The same measure for `COC1=CC2C3Cc4ccc(OC)c(O)c4C2(CCN3C)CC1=O` (configuration not stated) [Sinomenine]: 0.726 ± 0.16; for `CC(C)C12OC1C1OC13C1(C)CCC4=C(COC4=O)C1CC1OC13C2=O` (configuration not stated) [Triptonide]: 1.36 ± 0.38.
The same measure for `O=C(O)c1nn(Cc2ccc(Cl)cc2Cl)c2ccccc12` [Lonidamine]: 1.05 ± 0.45; for `CC12CCC3c4ccc(OC(=O)N(CCCl)CCCl)cc4CCC3C1CCC2OP(=O)([O-])[O-].[Na+].[Na+]` (configuration not stated) [Estramustine phosphate sodium]: 1.04 ± 0.24.
Take `CCC1(O)C(=O)OCc2c1cc1n(c2=O)Cc2cc3ccccc3nc2-1` (configuration not stated) [Camptothecin]: the IL-6-GFP fluorescence was 0.803 ± 0.11.
Compound `c1ccc2c(c1)Sc1ccccc1N2CC1CN2CCC1CC2` (configuration not stated) [Mequitazine] displayed an IL-6-GFP fluorescence of 0.973 ± 0.42.
The same measure for `O=C(O)C1C2CCC(O2)C1C(=O)[O][Na]` (configuration not stated) [Sodium Demethylcantharidate]: 0.996 ± 0.34.
The same measure for `Cn1cc(C2=C(c3cn(C4CCN(Cc5ccccn5)CC4)c4ccccc34)C(=O)NC2=O)c2ccccc21`: 1.11 ± 0.19; for `Cc1c(N)nc(C(CC(N)=O)NCC(N)C(N)=O)nc1C(=O)NC(C(=O)NC(C)C(O)C(C)C(=O)NC(C(=O)NCCc1nc(-c2nc(C(=O)NCCC[S+](C)C)cs2)cs1)C(C)O)C(OC1OC(CO)C(O)C(O)C1OC1OC(CO)C(O)C(OC(N)=O)C1O)c1c[nH]cn1.O=S(=O)([O-])O` (configuration not stated) [Bleomycin sulfate]: 1.09 ± 0.016; for `O=P1(NCCCl)OCCCN1CCCl` (configuration not stated) [Ifosfamide]: 1.01 ± 0.079.
As for `Cc1cccc(C(C)c2c[nH]cn2)c1C.Cl` (configuration not stated) [Medetomidine HCl], the IL-6-GFP fluorescence worked out at 0.909 ± 0.12.
`NC(Cc1ccc(N(CCCl)CCCl)cc1)C(=O)O` (configuration not stated) [Melphalan] gave an IL-6-GFP fluorescence of 0.874 ± 0.095.
Take `COC(=O)CC(O)(CCC(C)(C)O)C(=O)OC1C(OC)=CC23CCCN2CCc2cc4c(cc2C13)OCO4` (configuration not stated) [Harringtonine]: the IL-6-GFP fluorescence was 1.28 ± 0.37.
In the case of `O.O=P1(N(CCCl)CCCl)NCCCO1` (configuration not stated) [Cyclophosphamide Monohydrate] it was 0.78 ± 0.29; in that of `COc1cc(C2c3cc4c(cc3C(O)C3COC(=O)C23)OCO4)cc(OC)c1OC` (configuration not stated) [Picropodophyllin (PPP)], 1.08 ± 0.031.
Turning to `C=CCN1CC(C(=O)N(CCCN(C)C)C(=O)NCC)CC2c3cccc4[nH]cc(c34)CC21` (configuration not stated) [Cabergoline], the IL-6-GFP fluorescence amounted to 0.925 ± 0.059.
Compound `CC(C)(C)NCC(O)c1ccccc1Cl.Cl` (configuration not stated) [Tulobuterol hydrochloride] displayed an IL-6-GFP fluorescence of 0.86 ± 0.011.
